Test results published in patent US12459918B2, “Isoquinolinone derivatives serving as rock protein kinase inhibitors and use thereof” (GUANGZHOU OCUSUN OPHTHALMIC BIOTECHNOLOGY CO., LTD., priority 2019, dated 2025).
Some of these results come from one statement about several compounds together.

System: New Zealand rabbits with normal intraocular pressure
Experiment: Fluorescein sodium examination, 14 days eye-drop administration
Format: in vivo
Conditions: right eyes treated; 14 consecutive days

Row | Structure (SMILES) | Scores of fluorescein sodium examination on eyes
1 | Cc1ccc(C(=O)OCn2cc(C)c3c(S(=O)(=O)N4CC[C@H](N)C4)cccc3c2=O)c(C)c1 [Compound 63] | lower than 1
2 | C[C@H]1CNCCCN1S(=O)(=O)c1cccc2cncc(F)c12 [Compound K-115, reference compound] | lower than 1
